Experimental data as given in patent publication US10513547B2, “Peptides and combination of peptides and scaffolds thereof for use in immunotherapy against colorectal carcinoma (CRC) and other cancers” (Immatics Biotechnologies GmbH, priority 2015, dated 2019).

Tested on: HLA molecules from shock-frozen tissue samples (CRC, other tumors, normal tissues)
Assay: Identification and label-free relative LC-MS quantitation of HLA-presented tumor associated peptides (presentation profiles, XPRESIDENT)
Design: species or system human; key to Peptide Presentation (presentation score): very highly over-presented on tumors compared to a panel of normal tissues (+++); highly over-presented on tumors compared to a panel of normal tissues (++); over-presented on tumors compared to a panel of normal tissues (+)
Settings: for Other relevant organs/diseases: additional tumor types: over-presented on more than 5% of measured tumor samples, or presented on more than 5% with ratio of geometric means tumor vs normal larger than 3; for Additional Entities (additional tumor types on which the peptide was found): over-presentation on more than 5% of the measured tumor samples, or presentation on more than 5% of the measured tumor samples with ratio of geometric means tumor vs normal tissues larger than 3; for Peptide Presentation (presentation score): over-presentation on tumors compared to a panel of normal tissues; for number of cancer tissues with detectable presentation of the peptide: all samples with detectable presentation, all tumor types

177 (ALLQGAIESV; listed as Homo sapiens) [compound 177]
Other relevant organs/diseases: Melanoma, Ovary, Esophagus
Additional Entities (additional tumor types on which the peptide was found): SCLC, GC, Urinary bladder cancer, Gallbladder Cancer, Bile Duct Cancer
Peptide Presentation (presentation score): +

26 (GLASKENFSNVSL; listed as Homo sapiens) [compound 26]
Other relevant organs/diseases: Lung, Liver, Esophagus
Additional Entities (additional tumor types on which the peptide was found): Urinary bladder cancer, Uterine Cancer, Gallbladder Cancer, Bile Duct Cancer
Peptide Presentation (presentation score): +++

146 (ALSDETWGL; listed as Homo sapiens) [compound 146]
Other relevant organs/diseases: Kidney, Stomach, Pancreas, Breast, Ovary
Additional Entities (additional tumor types on which the peptide was found): SCLC, CLL, Esophageal Cancer, Urinary bladder cancer, Uterine Cancer, Gallbladder Cancer, Bile Duct Cancer
Peptide Presentation (presentation score): +

234 (KMFESFIESV; listed as Homo sapiens) [compound 234]
Other relevant organs/diseases: Lung, Kidney, Brain, Liver, Prostate, Ovary, Esophagus
Peptide Presentation (presentation score): ++

179 (RLLSPLSSA; listed as Homo sapiens) [compound 179]
Additional Entities (additional tumor types on which the peptide was found): AML, BRCA, PC, Gallbaldder Cancer, HCC, Melanoma, NHL, OC, Esophageal Cancer, Brain Cancer, NSCLC, SCLC, Uterine Cancer
Peptide Presentation (presentation score): +

99 (KLLEVDLDTV; listed as Homo sapiens) [compound 99]
Additional Entities (additional tumor types on which the peptide was found): Gallbladder Cancer, Bile Duct Cancer, AML

37 (GLFAGLGGAGA; listed as Homo sapiens) [compound 37]
Other relevant organs/diseases: Esophagus
Additional Entities (additional tumor types on which the peptide was found): BRCA, Melanoma, Urinary bladder cancer, Uterine Cancer, Gallbladder Cancer, Bile Duct Cancer
Peptide Presentation (presentation score): +++

200 (SAVDFIRTL; listed as Homo sapiens) [compound 200]
Other relevant organs/diseases: Breast, Esophagus

SEQ ID NO.: 142 (SLVQRVETI; listed as Homo sapiens)
number of cancer tissues with detectable presentation of the peptide: 47

251 (SLLQATDFMSL; listed as Homo sapiens) [compound 251]
Other relevant organs/diseases: Kidney, Pancreas, Esophagus

155 (RLLGEEVVRV; listed as Homo sapiens) [compound 155]
Other relevant organs/diseases: Esophagus
Additional Entities (additional tumor types on which the peptide was found): Melanoma
Peptide Presentation (presentation score): ++

87 (LLFDAPDLRL; listed as Homo sapiens) [compound 87]
Other relevant organs/diseases: Lung, Ovary
Additional Entities (additional tumor types on which the peptide was found): SCLC, BRCA, Urinary bladder cancer, Uterine Cancer

114 (TAVGHALVL; listed as Homo sapiens) [compound 114]
Additional Entities (additional tumor types on which the peptide was found): BRCA, Melanoma, Gallbladder Cancer, Bile Duct Cancer

207 (KLCEGFNEV; listed as Homo sapiens) [compound 207]
Other relevant organs/diseases: Brain, Liver
Peptide Presentation (presentation score): +++

159 (VLVDDDGIKVV; listed as Homo sapiens) [compound 159]
Other relevant organs/diseases: Liver, Melanoma, Ovary
Additional Entities (additional tumor types on which the peptide was found): SCLC, BRCA, Esophageal Cancer, Urinary bladder cancer, Uterine Cancer, Gallbladder Cancer, Bile Duct Cancer, NHL
Peptide Presentation (presentation score): +++

247 (SLDTLMTYV; listed as Homo sapiens) [compound 247]
Other relevant organs/diseases: Lung, Kidney, Brain, Pancreas, Prostate, Leukocytes, Esophagus
Peptide Presentation (presentation score): +

133 (RTFEKIEEV; listed as Homo sapiens) [compound 133]
Other relevant organs/diseases: Lung, Kidney, Brain, Stomach, Liver, Breast, MCC, Ovary, Esophagus
Additional Entities (additional tumor types on which the peptide was found): SCLC, Melanoma, Urinary bladder cancer, Uterine Cancer, AML, NHL
Peptide Presentation (presentation score): +++

218 (KLSWDLIYL; listed as Homo sapiens) [compound 218]
Other relevant organs/diseases: Lung, Kidney
Peptide Presentation (presentation score): +

216 (YLWDLDHGFAGV; listed as Homo sapiens) [compound 216]
Other relevant organs/diseases: Lung, Brain, Liver, Prostate, Melanoma, Ovary, Esophagus
Peptide Presentation (presentation score): +++

SEQ ID NO.: 192: peptide found in MMP12 (gene looked up) (KIQEMQHFL; listed as Homo sapiens)
number of cancer tissues with detectable presentation of the peptide: 44

32 (KLNTETFGV; listed as Homo sapiens) [compound 32]
Additional Entities (additional tumor types on which the peptide was found): GC, BRCA, Esophageal Cancer, AML
Peptide Presentation (presentation score): +++

131 (KLLDVVHPA; listed as Homo sapiens) [compound 131]
Other relevant organs/diseases: Lung, Brain, Liver, Prostate, Ovary
Additional Entities (additional tumor types on which the peptide was found): CLL, BRCA, Urinary bladder cancer, Uterine Cancer, AML, NHL
Peptide Presentation (presentation score): +++

40 (ALSNVIHKV; listed as Homo sapiens) [compound 40]
Other relevant organs/diseases: Lung, Pancreas, Esophagus
Additional Entities (additional tumor types on which the peptide was found): Urinary bladder cancer
Peptide Presentation (presentation score): +++

101 (GLSEGHTFQV; listed as Homo sapiens) [compound 101]
Other relevant organs/diseases: Prostate

245 (QLIDYERQL; listed as Homo sapiens) [compound 245]
Other relevant organs/diseases: Lung, Kidney, Liver, Pancreas, Breast, Esophagus
Peptide Presentation (presentation score): +

258 (LLYEGKLTL; listed as Homo sapiens) [compound 258]
Other relevant organs/diseases: Breast, Ovary

214 (SVLEKEIYSI; listed as Homo sapiens) [compound 214]
Other relevant organs/diseases: Lung, Liver, Prostate, Breast, Ovary, Esophagus
Peptide Presentation (presentation score): +++

61 (KLLKLFQGV; listed as Homo sapiens) [compound 61]
Other relevant organs/diseases: Kidney
Additional Entities (additional tumor types on which the peptide was found): Melanoma, AML
Peptide Presentation (presentation score): +++

4 (RLAELTVDEFL; listed as Homo sapiens) [compound 4]
Other relevant organs/diseases: Lung, Ovary
Additional Entities (additional tumor types on which the peptide was found): CLL, Melanoma, Urinary bladder cancer, AML
Peptide Presentation (presentation score): +++

35 (KLLDLTVRI; listed as Homo sapiens) [compound 35]
Additional Entities (additional tumor types on which the peptide was found): Gallbladder Cancer, Bile Duct Cancer
Peptide Presentation (presentation score): +++

151 (SAQGSDVSLTACKV; listed as Homo sapiens) [compound 151]
Other relevant organs/diseases: Lung

136 (KLFDIFSQQV; listed as Homo sapiens) [compound 136]
Other relevant organs/diseases: Liver
Additional Entities (additional tumor types on which the peptide was found): Urinary bladder cancer, Uterine Cancer, NHL
Peptide Presentation (presentation score): +++

238 (NMLEAVHTI; listed as Homo sapiens) [compound 238]
Other relevant organs/diseases: Lung, Liver, Melanoma, Ovary, Esophagus
Peptide Presentation (presentation score): ++

229 (YLLEKFVAV; listed as Homo sapiens) [compound 229]
Other relevant organs/diseases: Lung, Liver, Ovary
Peptide Presentation (presentation score): ++

5 (WLFDDGGLTL; listed as Homo sapiens) [compound 5]
Peptide Presentation (presentation score): +++

SEQ ID NO.: 1 (ALIKQLFEA; listed as Homo sapiens)
number of cancer tissues with detectable presentation of the peptide: 58
additionally detected on brain cancers (positive/measured samples) (brain cancers): 2/28
additionally detected on esophageal cancers (positive/measured samples) (esophageal cancers): 2/15
additionally detected on lung cancers (positive/measured samples) (lung cancers): 9/99
additionally detected on ovarian cancers (positive/measured samples) (ovarian cancers): 4/20
additionally detected on stomach cancers (positive/measured samples) (stomach cancers): 1/45

153 (ILFSEDSTKLFV; listed as Homo sapiens) [compound 153]
Other relevant organs/diseases: Lung, Liver, Leukocytes, Melanoma, Ovary, Esophagus
Additional Entities (additional tumor types on which the peptide was found): Urinary bladder cancer, NHL
Peptide Presentation (presentation score): +

110 (LLGELPRLLLL; listed as Homo sapiens) [compound 110]
Other relevant organs/diseases: Lung, Pancreas, Leukocytes
Additional Entities (additional tumor types on which the peptide was found): Melanoma, Esophageal Cancer, Urinary bladder cancer
Peptide Presentation (presentation score): +

204 (KLLDLETERILL; listed as Homo sapiens) [compound 204]
Other relevant organs/diseases: Lung, Liver, Prostate, Ovary
Peptide Presentation (presentation score): ++

95 (AILDAHIEV; listed as Homo sapiens) [compound 95]
Peptide Presentation (presentation score): +

109 (ALDGDQMEL; listed as Homo sapiens) [compound 109]
Additional Entities (additional tumor types on which the peptide was found): AML

126 (TLAKYLMEL; listed as Homo sapiens) [compound 126]
Other relevant organs/diseases: Lung, Brain, Liver, Ovary, Esophagus
Additional Entities (additional tumor types on which the peptide was found): SCLC, BRCA, Melanoma, Urinary bladder cancer, Uterine Cancer, Gallbladder Cancer, Bile Duct Cancer, AML, NHL
Peptide Presentation (presentation score): +++

137 (QLTEIKPLL; listed as Homo sapiens) [compound 137]
Other relevant organs/diseases: Brain, Ovary
Additional Entities (additional tumor types on which the peptide was found): CLL, Urinary bladder cancer, Uterine Cancer, Gallbladder Cancer, Bile Duct Cancer, AML, NHL
Peptide Presentation (presentation score): +++

250 (ALCEENMRGV; listed as Homo sapiens) [compound 250]
Other relevant organs/diseases: Lung, Kidney, Brain, Liver, MCC, Esophagus
Peptide Presentation (presentation score): +

202 (GLAALAVHL; listed as Homo sapiens) [compound 202]
Other relevant organs/diseases: Melanoma, Ovary, Esophagus
Peptide Presentation (presentation score): +++
